PubChem BioAssay AID1259405 | NCATS – 2018

Aim: 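Knock-downs that lift recombinant protein yield in hamster ovary cells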 (primary screen)
System: Chinese hamster CHO-K1 ovary cells with stable secreted eGFP expression
Reagents: single siRNA against mouse genes, 0.8 pmol siRNA per well (2 µl of 400 nM stock)
Time to read-out: 3 days
Measurement: 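Percent of the per-plate non-targeting control median for intracellular GFP per well by laser scanning cytometry and for cell viability by ATP luminescence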
Direction: GFP, % of control: higher = more GFP per well, higher productivity; viability (ATP), % of control: higher = more viable cells (more ATP)
Call rule: 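Called active when intracellular GFP, relative to negative control, is at or above 120%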
The deposit covers about 50,000 reagents; this is a part drawn at random. Over the whole deposit, about 4,000 (8%) are marked active. 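Mouse siRNA library applied to hamster cells; one well for each siRNA.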 A number with no mark means an inactive call. Reagents against one gene are numbered here.

no.	target gene	siRNA no.	GFP, % of control	viability (ATP), % of control
1	Ptges3l	1	128 (active)	62.5
2	Ptges3l	2	40.3	37.3
3	Ptges3l	3	63.1	57.4
4	Tbc1d23	1	80.9	111
5	Tbc1d23	2	98.9	98
6	Golm1	1	62.7	65.1
7	Golm1	2	50.9	56.3
8	Golm1	3	41.9	40.9
9	Gadd45a	1	69.9	86.4
10	Gadd45a	2	97.7	60.2
11	Gadd45a	3	87.2	85.3
12	Cyp4a12a	1	55.7	60.4
13	Cyp4a12a	2	65.3	70
14	Cyp4a12a	3	76.1	73.3
15	Drg2	1	138 (active)	82.9
16	Drg2	2	98.9	92.2
17	Drg2	3	93.4	65.2
18	Zdhhc5	1	41.4	49.2
19	Zdhhc5	2	67.4	71.1
20	Zdhhc5	3	50.6	75.3
21	Msrb1	1	81.8	82.5
22	Msrb1	2	77.7	49.8
23	Msrb1	3	85.1	83.5
24	Ppp1r14c	1	63.2	83
25	Ppp1r14c	2	99.8	77.6
26	Ppp1r14c	3	107	91
27	Dst	1	31.5	61.1
28	Dst	2	87.7	90.7
29	Dst	3	52.4	62
30	Pvt1	1	88.2	65.1
31	Pvt1	2	82.1	58
32	Pvt1	3	101	71.3
33	Gstt2	1	119	113
34	Gstt2	2	48.2	37.5
35	Gstt2	3	68.3	82.7
36	Tm2d2	1	83.7	71
37	Tm2d2	2	69.1	66.6
38	Tm2d2	3	100	70.1
39	Mog	1	72.8	67.1
40	Mog	2	75.2	80.6
41	Mog	3	58.5	53.2
42	A830031A19Rik	1	158 (active)	113
43	A830031A19Rik	2	63.1	95.6
44	A830031A19Rik	3	97.4	102
45	Dpagt1	1	84.3	92.6
46	Dpagt1	2	50.2	118
47	Dpagt1	3	104	112
48	Sipa1l1	1	80.2	79.2
49	Sipa1l1	2	120 (active)	103
50	Sipa1l1	3	79.6	80.6
51	Arl14ep	1	99.5	97.8
52	Arl14ep	2	83.7	80.3
53	Arl14ep	3	92.2	101
54	A530016L24Rik	1	83	53.7
55	A530016L24Rik	2	95.9	95.5
56	A530016L24Rik	3	90.2	125
57	Mcrip2	1	75.8	72
58	Mcrip2	2	86.4	48.9
59	Mcrip2	3	73.6	75.5

Reformatted: entries from further up
| target gene | siRNA no. | GFP, % of control | viability (ATP), % of control |
| --- | --- | --- | --- |
| Gstt2 | 3 | 68.3 | 82.7 |
| Tm2d2 | 1 | 83.7 | 71 |
| Tm2d2 | 2 | 69.1 | 66.6 |
| Tm2d2 | 3 | 100 | 70.1 |
| Mog | 1 | 72.8 | 67.1 |
